These are yes or no findings as the source states them, for the method shown. In cells and extracts the contact can be indirect. These calls come from enrichment with a bait or labelling near it, and not all partners need be listed. Blank lines part the entries; values can stand above or below the molecule they belong to.
Biological target: V5-tagged MLF (Myeloid Leukemia Factor), from pMT-MLF-V5-His (Drosophila) (UniProt Q9NKV0)
Experiment: affinity purification with mass spectrometry; anti-V5 antibody coupled to sepharose (IP1) or magnetic (IP2) beads; 20 mg of proteins extracted in IP buffer (150 mM NaCl, 0.5% NP40, 50 mM Tris-HCl pH 8.0, 1 mM EGTA) from CuSO4-induced Kc167-pMT-MLF-V5 cells, parental Kc167 cells as control; nanoLC-MS/MS

Sequences of proteins named here, by UniProt entry; tags and fusion partners are left off. A change or cut given only in a name is not applied to a line headed by its entry. Residues count along the entry.
UniProt Q9NKV0: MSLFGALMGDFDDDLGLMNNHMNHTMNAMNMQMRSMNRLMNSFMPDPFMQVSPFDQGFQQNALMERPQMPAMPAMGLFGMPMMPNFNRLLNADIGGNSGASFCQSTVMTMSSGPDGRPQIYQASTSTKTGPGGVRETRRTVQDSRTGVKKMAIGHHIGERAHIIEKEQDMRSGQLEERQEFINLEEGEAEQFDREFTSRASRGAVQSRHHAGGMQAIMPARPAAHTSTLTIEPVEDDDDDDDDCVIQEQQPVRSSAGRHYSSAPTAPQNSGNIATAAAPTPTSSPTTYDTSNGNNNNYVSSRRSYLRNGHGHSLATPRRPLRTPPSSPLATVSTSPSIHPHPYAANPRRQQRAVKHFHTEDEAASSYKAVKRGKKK
UniProt P29844, residues 19-656: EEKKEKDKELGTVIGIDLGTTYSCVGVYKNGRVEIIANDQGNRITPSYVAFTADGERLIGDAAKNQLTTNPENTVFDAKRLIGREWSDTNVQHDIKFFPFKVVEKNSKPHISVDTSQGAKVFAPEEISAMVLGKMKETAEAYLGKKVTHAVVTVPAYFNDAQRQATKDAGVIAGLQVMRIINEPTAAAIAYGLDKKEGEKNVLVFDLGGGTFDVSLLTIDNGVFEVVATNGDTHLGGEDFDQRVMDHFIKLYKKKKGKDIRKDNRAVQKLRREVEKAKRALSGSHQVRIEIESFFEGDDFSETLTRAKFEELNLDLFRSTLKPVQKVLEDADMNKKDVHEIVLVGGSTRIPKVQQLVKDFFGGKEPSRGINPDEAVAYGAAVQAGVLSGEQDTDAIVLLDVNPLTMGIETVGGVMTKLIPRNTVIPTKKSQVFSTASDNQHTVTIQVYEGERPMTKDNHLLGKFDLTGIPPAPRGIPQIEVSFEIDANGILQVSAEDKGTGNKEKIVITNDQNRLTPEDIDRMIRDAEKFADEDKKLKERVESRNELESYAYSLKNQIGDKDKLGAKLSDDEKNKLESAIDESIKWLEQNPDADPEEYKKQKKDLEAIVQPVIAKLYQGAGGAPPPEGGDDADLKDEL
UniProt P11147: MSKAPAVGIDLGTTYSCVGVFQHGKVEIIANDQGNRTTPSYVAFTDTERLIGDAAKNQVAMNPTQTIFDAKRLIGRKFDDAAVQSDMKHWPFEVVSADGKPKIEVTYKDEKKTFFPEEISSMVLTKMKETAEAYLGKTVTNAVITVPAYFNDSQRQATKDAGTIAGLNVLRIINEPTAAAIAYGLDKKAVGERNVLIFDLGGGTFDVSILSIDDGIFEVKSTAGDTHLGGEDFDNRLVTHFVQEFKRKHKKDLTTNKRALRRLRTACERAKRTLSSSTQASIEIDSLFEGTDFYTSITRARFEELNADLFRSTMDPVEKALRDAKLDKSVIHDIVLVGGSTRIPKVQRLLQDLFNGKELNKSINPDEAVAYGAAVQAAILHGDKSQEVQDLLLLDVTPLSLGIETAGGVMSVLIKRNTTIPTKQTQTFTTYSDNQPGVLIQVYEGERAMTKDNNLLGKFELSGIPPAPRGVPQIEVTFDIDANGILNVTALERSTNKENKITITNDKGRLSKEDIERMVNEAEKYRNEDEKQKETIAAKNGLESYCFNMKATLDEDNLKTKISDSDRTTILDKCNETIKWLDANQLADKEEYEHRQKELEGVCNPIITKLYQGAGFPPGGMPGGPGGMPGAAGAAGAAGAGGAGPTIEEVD

binding: binds
Molecule: Hsc70-3 (constitutively expressed Hsp70 chaperone), endogenous (from UniProt P29844 19-656)

binding: binds
Molecule: Hsc70-4 (constitutively expressed Hsp70 chaperone), endogenous (from UniProt P11147 1-651)

binding: binds
B1: Squid (RNA binding protein), endogenous (protein, UniProt Q08473 1-344)
chain: MAENKQVDTEINGEDFTKDVTADGPGSENGDAGAAGSTNGSSDNQSAASGQRDDDRKLFVGGLSWETTEKELRDHFGKYGEIESINVKTDPQTGRSRGFAFIVFTNTEAIDKVSAADEHIINSKKVDPKKAKARHGKIFVGGLTTEISDEEIKTYFGQFGNIVEVEMPFDKQKSQRKGFCFITFDSEQVVTDLLKTPKQKIAGKEVDVKRATPKPENQMMGGMRGGPRGGMRGGRGGYGGRGGYNNQWDGQGSYGGYGGGYGGYGAGGYGDYYAGGYYNGYDYGYDGYGYGGGFEGNGYGGGGGGNMGGGRGGPRGGGGPKGGGGFNGGKQRGGGGRQQRHQPY
